# Several values for one entry are separate records, joined by “and”; a condition that tells them apart may be missing. Equal entries are not always repeated. Structures can show the parent of a compound that is named as a salt. ± gives the standard deviation of the averaged measurements. The list shows a part of the results. Baselines shift from plate to plate; read single values as rough.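 Assay uses culture-activated primary human stellate myofibroblasts; lipid droplet recovery indicates inactivation. Measured: proportion of Hoechst-counted cells over a plate-specific Bodipy cutoff, duplicate wells, DMSO and nortriptyline as per-plate negative and positive controls. A hit scores, control-normalized, above the plate's top-tenth-percentile nortriptyline wells or ranks among its three best wells. Final well concentrations not reported.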
# System: primary human hepatic stellate cells (donor 1)
# Assay: percent Bodipy-positive cells; higher = more lipid droplet accumulation
# Conditions: 48 h
# [1] = library stock concentration: 3.33 mM
# [2] = library stock concentration: 10 mM
# [3] = library stock concentration: 400 uM
# [4] = library stock concentration: 2 mM
# [5] = library stock concentration: 80 uM
# [6] = library stock concentration: 1 mM
smiles,measurement,setting,value
c1ccc(-c2n[nH]c3c2oc2ccccc23)cc1,percent Bodipy-positive cells,[1],7.61 ± 1.2%
same,percent Bodipy-positive cells,[2],9.64 ± 5.6%
c1ccc2oc(C3=NCCN3)cc2c1 [2-BFI hydrochloride],percent Bodipy-positive cells,[2],9.22 ± 3.4%
CCc1oc2ccccc2c1C(=O)c1cc(Br)c(O)c(Br)c1 [Benzbromarone],percent Bodipy-positive cells,,24.6 ± 3.9%
same,percent Bodipy-positive cells,[1],11 ± 0.41%
same,percent Bodipy-positive cells,library stock concentration: 4.7 mM,12.3 ± 11%
same,percent Bodipy-positive cells,[2],36.6 ± 13%
CCc1oc2ccccc2c1C(=O)c1cc(Br)c(O)c(Br)c1,percent Bodipy-positive cells,[2],12.9 ± 3.4%
CC/C(=C(\c1ccccc1)c1ccc(OCCN(C)C)cc1)c1ccccc1 [Tamoxifen Citrate],percent Bodipy-positive cells,[1],57.5 ± 3%
same,percent Bodipy-positive cells,[2],93.9 ± 2.1%
CC/C(=C(\c1ccccc1)c1ccc(OCCN(C)C)cc1)c1ccccc1 [Tamoxifen],percent Bodipy-positive cells,[2],98.4% and 99.4%
same,percent Bodipy-positive cells,library stock concentration: 13.5 mM,75.2 ± 5.2%
CC/C(=C(\c1ccccc1)c1ccc(OCCN(C)C)cc1)c1ccccc1 [Tamoxifen citrate],percent Bodipy-positive cells,,52.6 ± 2.3%
same,percent Bodipy-positive cells,library stock concentration: 3.5 mM,80.9 ± 9.9%
same,percent Bodipy-positive cells,library stock concentration: 5.4 mM,39.2 ± 7.3%
CN[C@@H]1[C@H](O[C@H]2[C@H](O[C@H]3[C@H](O)[C@@H](O)[C@H](NC(=N)N)[C@@H](O)[C@@H]3NC(=N)N)O[C@@H](C)[C@]2(O)CO)O[C@@H](CO)[C@H](O)[C@H]1O [Dihydrostreptomycin sulfate],percent Bodipy-positive cells,,28.1 ± 6%
same,percent Bodipy-positive cells,library stock concentration: 2.9 mM,4.88 ± 0.75%
same,percent Bodipy-positive cells,[2],7.35 ± 2.4%
NCc1ccc(S(N)(=O)=O)cc1 [Mafenide hydrochloride],percent Bodipy-positive cells,,25.5 ± 3.8%
same,percent Bodipy-positive cells,library stock concentration: 9 mM,3.84 ± 0.99%
same,percent Bodipy-positive cells,[2],13.7 ± 2%
NCc1ccc(S(N)(=O)=O)cc1,percent Bodipy-positive cells,[2],39.8 ± 11%
Cc1c[nH]c(/C=C2\C(=O)Nc3ccccc32)c1CCC(=O)O,percent Bodipy-positive cells,[3],33.58 ± 0.16%
same,percent Bodipy-positive cells,[4],20.8 ± 3.6%
same,percent Bodipy-positive cells,[2],27.1 ± 5.3%
Cc1ccccc1N=Nc1ccc(NC(=O)c2ccnn2C)c(C)c1,percent Bodipy-positive cells,[2],9.37 ± 1.4%
CCN(CCCOc1ccc2c(Nc3cc(CC(=O)Nc4cccc(F)c4)[nH]n3)ncnc2c1)CCOP(=O)(O)O [Barasertib],percent Bodipy-positive cells,[5],11.6 ± 0.059%
same,percent Bodipy-positive cells,[3],8.38 ± 4.5%
same,percent Bodipy-positive cells,[4],19.7 ± 2.4%
same,percent Bodipy-positive cells,[2],37.4 ± 10%
CC(C)(C)NCC(O)c1cc(O)cc(O)c1 (configuration not stated) [Terbutaline hemisulfate],percent Bodipy-positive cells,,35.7 ± 4.1%
same,percent Bodipy-positive cells,library stock concentration: 6.2 mM,14.6 ± 1.5%
same,percent Bodipy-positive cells,[2],17.1% and 12.9%
CC(C)(C)NCC(O)c1cc(O)cc(O)c1 (configuration not stated) [Terbutaline Sulfate],percent Bodipy-positive cells,[2],40.38 ± 0.12%
O=C(O)CCCCC1CCSS1 (racemic) [DL-.alpha.-Lipoic Acid],percent Bodipy-positive cells,[6],9.37 ± 2.5%
NS(=O)(=O)c1cc2c(cc1Cl)NC(CC1CCCC1)NS2(=O)=O (configuration not stated) [Cyclopenthiazide],percent Bodipy-positive cells,,9.81 ± 1.4%
O=C(O)CCC/C=C\C[C@H]1C(=O)C[C@@H](O)[C@@H]1/C=C/[C@@H](O)COc1ccccc1 [16-phenoxy tetranor Prostaglandin E2],percent Bodipy-positive cells,[6],25.1 ± 1.4%
CC[N+](CC)(CC)CCOc1cccc(OCC[N+](CC)(CC)CC)c1OCC[N+](CC)(CC)CC [Gallamine triethiodide],percent Bodipy-positive cells,,21 ± 1.9%
same,percent Bodipy-positive cells,[2],35.8 ± 5.9%
CC[N+](CC)(CC)CCOc1cccc(OCC[N+](CC)(CC)CC)c1OCC[N+](CC)(CC)CC [Gallamine Triethiodide],percent Bodipy-positive cells,[1],9.35 ± 5.4%
same,percent Bodipy-positive cells,[2],21 ± 11%
CCOC(=O)[N-]c1c[n+](N2CCOCC2)no1 [Molsidomine],percent Bodipy-positive cells,,31.4 ± 2%
same,percent Bodipy-positive cells,[6],18.1 ± 8.1%
same,percent Bodipy-positive cells,library stock concentration: 8.3 mM,11.2% and 23.4%
same,percent Bodipy-positive cells,[2],18.5% and 21.8%
CCCNCC(O)COc1ccccc1C(=O)CCc1ccccc1.Cl (configuration not stated) [Propafenone hydrochloride],percent Bodipy-positive cells,[2],84.9 ± 1.9%
C=C(c1ccc(C(=O)O)cc1)c1cc2c(cc1C)C(C)(C)CCC2(C)C [Bexarotene],percent Bodipy-positive cells,[1],11.5 ± 7.9%
same,percent Bodipy-positive cells,library stock concentration: 5.7 mM,10.2 ± 1.7%
same,percent Bodipy-positive cells,[2],13.9 ± 4.3%
CN(C)CCCCC(=O)Nc1ccc(NC(=S)NC(=O)c2ccc(C(C)(C)C)cc2)cc1 [Tenovin-6],percent Bodipy-positive cells,[6],41.5 ± 3.7%
same,percent Bodipy-positive cells,[2],97.73 ± 0.67%
CC(C(=O)O)c1ccc(C(=O)c2cccs2)cc1 (configuration not stated) [Suprofen],percent Bodipy-positive cells,,8.42 ± 4.6%
same,percent Bodipy-positive cells,[1],10.3 ± 4.3%
same,percent Bodipy-positive cells,library stock concentration: 7.7 mM,22.5 ± 0.34%
same,percent Bodipy-positive cells,[2],27.5% and 33.8%
COc1cc2ncnc(Nc3ccc(F)c(Cl)c3)c2cc1OCCCN1CCOCC1,percent Bodipy-positive cells,[5],18.4 ± 3.9%
same,percent Bodipy-positive cells,[3],29.1 ± 22%
same,percent Bodipy-positive cells,[4],35.3 ± 6.6%
same,percent Bodipy-positive cells,[2],74.3 ± 12%
"COc1cc2ncnc(Nc3ccc(F)c(Cl)c3)c2cc1OCCCN1CCOCC1 [Gefitinib (ZD1839, Iressa) (0.4 mM)]",percent Bodipy-positive cells,[3],38.3 ± 5.4%
COc1cc2ncnc(Nc3ccc(F)c(Cl)c3)c2cc1OCCCN1CCOCC1 [Gefitinib (ZD1839)],percent Bodipy-positive cells,[1],38.3 ± 0.47%
COc1cc2ncnc(Nc3ccc(F)c(Cl)c3)c2cc1OCCCN1CCOCC1 [Gefitinib],percent Bodipy-positive cells,library stock concentration: 4.5 mM,35.9 ± 11%
CN1CCN(c2nc(C3=C(c4c[nH]c5ccccc45)C(=O)NC3=O)c3ccccc3n2)CC1 [Sotrastaurin],percent Bodipy-positive cells,[5],9.13 ± 0.95%
same,percent Bodipy-positive cells,[3],17 ± 7.2%
same,percent Bodipy-positive cells,[4],7.19 ± 2.2%
same,percent Bodipy-positive cells,[1],5.61 ± 0.17%
"O=C1C(=Cc2ccc(O)cc2)C2=Nc3ccccc3C2=C1C1=C2C(=Nc3ccccc32)C(=Cc2ccc(O)cc2)C1=O [Scytonemin, Lyngbya sp.]",percent Bodipy-positive cells,[1],20.5 ± 2.8%
CN1CCC[C@@H]1CCO[C@](C)(c1ccccc1)c1ccc(Cl)cc1 [Clemastine fumarate],percent Bodipy-positive cells,,64.8 ± 0.86%
CN1CCC[C@@H]1CCO[C@](C)(c1ccccc1)c1ccc(Cl)cc1 [Clemastine Fumarate],percent Bodipy-positive cells,[1],42.1 ± 12%
same,percent Bodipy-positive cells,[2],91.01 ± 0.68%
CN1CCC[C@@H]1CCO[C@](C)(c1ccccc1)c1ccc(Cl)cc1 [Clemastine],percent Bodipy-positive cells,[2],43.4 ± 0.71%
CCOc1ccc(NC(C)=O)cc1 [Phenacetin],percent Bodipy-positive cells,,56.7 ± 7.8%
same,percent Bodipy-positive cells,[1],10.2 ± 4%
same,percent Bodipy-positive cells,[2],15.6% and 21.4%
O=C(c1ccc(OCCCc2c[nH]cn2)cc1)C1CC1 [Ciproxifan hydrochloride],percent Bodipy-positive cells,[2],78.5 ± 17%
O=C(c1ccc(OCCCc2c[nH]cn2)cc1)C1CC1 [Ciproxifan],percent Bodipy-positive cells,[1],15.1 ± 2.7%
same,percent Bodipy-positive cells,[2],54.2 ± 21%
C=C1C[C@@H](O)[C@H](/C=C/[C@@H](O)CCCCC)[C@H]1C/C=C\CCCC(=O)O [9-deoxy-9-methylene Prostaglandin E2],percent Bodipy-positive cells,[6],24.9 ± 9.4%
CC(C)[C@H](N)C(=O)OCC(CO)OCn1cnc2c(=O)[nH]c(N)nc21 (some centres not stated) [Valganciclovir HCl],percent Bodipy-positive cells,[1],12.5 ± 6.1%
same,percent Bodipy-positive cells,[2],24.5 ± 4.3%
CCN1CCC[C@H]1CNC(=O)c1c(O)c(Cl)cc(Cl)c1OC [S(+)-Raclopride L-tartrate],percent Bodipy-positive cells,[2],20.6 ± 4.7%
CCN1CCC[C@H]1CNC(=O)c1c(O)c(Cl)cc(Cl)c1OC [Raclopride],percent Bodipy-positive cells,[2],13.7% and 9.03%
O=C(O)c1ccccc1 [Benzoic Acid],percent Bodipy-positive cells,[1],9.36 ± 1.6%
same,percent Bodipy-positive cells,[2],43.9 ± 12%
O=C(O)c1ccccc1 [Benzoic acid],percent Bodipy-positive cells,library stock concentration: 16.4 mM,26.2 ± 4.9%
CN(CC[C@@H](Oc1ccc(C(F)(F)F)cc1)c1ccccc1)CC(=O)[O-].[Li+],percent Bodipy-positive cells,[2],57.3 ± 11%
CC[C@@H]([C@H](C)O)n1ncn(-c2ccc(N3CCN(c4ccc(OC[C@@H]5CO[C@@](Cn6cncn6)(c6ccc(F)cc6F)C5)cc4)CC3)cc2)c1=O [Posaconazole],percent Bodipy-positive cells,[1],24.8 ± 10%

# No new results follow: entries from further up.
smiles,measurement,setting,value
CCOC(=O)[N-]c1c[n+](N2CCOCC2)no1 [Molsidomine],percent Bodipy-positive cells,,31.4 ± 2%
same,percent Bodipy-positive cells,[6],18.1 ± 8.1%
same,percent Bodipy-positive cells,library stock concentration: 8.3 mM,11.2% and 23.4%
same,percent Bodipy-positive cells,[2],18.5% and 21.8%
CCCNCC(O)COc1ccccc1C(=O)CCc1ccccc1.Cl (configuration not stated) [Propafenone hydrochloride],percent Bodipy-positive cells,[2],84.9 ± 1.9%
C=C(c1ccc(C(=O)O)cc1)c1cc2c(cc1C)C(C)(C)CCC2(C)C [Bexarotene],percent Bodipy-positive cells,[1],11.5 ± 7.9%
same,percent Bodipy-positive cells,library stock concentration: 5.7 mM,10.2 ± 1.7%
same,percent Bodipy-positive cells,[2],13.9 ± 4.3%
CN(C)CCCCC(=O)Nc1ccc(NC(=S)NC(=O)c2ccc(C(C)(C)C)cc2)cc1 [Tenovin-6],percent Bodipy-positive cells,[6],41.5 ± 3.7%
same,percent Bodipy-positive cells,[2],97.73 ± 0.67%
CC(C(=O)O)c1ccc(C(=O)c2cccs2)cc1 (configuration not stated) [Suprofen],percent Bodipy-positive cells,,8.42 ± 4.6%
same,percent Bodipy-positive cells,[1],10.3 ± 4.3%
same,percent Bodipy-positive cells,library stock concentration: 7.7 mM,22.5 ± 0.34%
same,percent Bodipy-positive cells,[2],27.5% and 33.8%
COc1cc2ncnc(Nc3ccc(F)c(Cl)c3)c2cc1OCCCN1CCOCC1,percent Bodipy-positive cells,[5],18.4 ± 3.9%
same,percent Bodipy-positive cells,[3],29.1 ± 22%
same,percent Bodipy-positive cells,[4],35.3 ± 6.6%
same,percent Bodipy-positive cells,[2],74.3 ± 12%
"COc1cc2ncnc(Nc3ccc(F)c(Cl)c3)c2cc1OCCCN1CCOCC1 [Gefitinib (ZD1839, Iressa) (0.4 mM)]",percent Bodipy-positive cells,[3],38.3 ± 5.4%
COc1cc2ncnc(Nc3ccc(F)c(Cl)c3)c2cc1OCCCN1CCOCC1 [Gefitinib (ZD1839)],percent Bodipy-positive cells,[1],38.3 ± 0.47%
COc1cc2ncnc(Nc3ccc(F)c(Cl)c3)c2cc1OCCCN1CCOCC1 [Gefitinib],percent Bodipy-positive cells,library stock concentration: 4.5 mM,35.9 ± 11%
CN1CCN(c2nc(C3=C(c4c[nH]c5ccccc45)C(=O)NC3=O)c3ccccc3n2)CC1 [Sotrastaurin],percent Bodipy-positive cells,[5],9.13 ± 0.95%
same,percent Bodipy-positive cells,[3],17 ± 7.2%

# Reference: the supplement of paper PMC9135407
